Experimental data: paper PMC12551392
These are yes or no findings as the source states them, for the method shown. Binding seen in cells or lysates may run through a third protein. Some entries that bind do so weakly or less than the wild type.

The chains behind the UniProt entries cited, without tags or fusion partners.
UniProt P25490: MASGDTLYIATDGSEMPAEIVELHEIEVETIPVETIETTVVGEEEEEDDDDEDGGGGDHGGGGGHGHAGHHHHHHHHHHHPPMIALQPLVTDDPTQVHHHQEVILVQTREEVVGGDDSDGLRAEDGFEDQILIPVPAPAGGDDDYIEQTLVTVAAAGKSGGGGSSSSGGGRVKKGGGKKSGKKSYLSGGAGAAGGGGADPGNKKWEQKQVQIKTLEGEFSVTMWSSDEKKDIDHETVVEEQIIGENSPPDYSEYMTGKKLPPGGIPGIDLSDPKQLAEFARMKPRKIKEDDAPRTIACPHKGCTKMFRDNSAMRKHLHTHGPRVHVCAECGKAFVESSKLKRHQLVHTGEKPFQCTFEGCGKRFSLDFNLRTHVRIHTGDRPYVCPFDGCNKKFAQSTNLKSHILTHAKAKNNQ
UniProt Q00899: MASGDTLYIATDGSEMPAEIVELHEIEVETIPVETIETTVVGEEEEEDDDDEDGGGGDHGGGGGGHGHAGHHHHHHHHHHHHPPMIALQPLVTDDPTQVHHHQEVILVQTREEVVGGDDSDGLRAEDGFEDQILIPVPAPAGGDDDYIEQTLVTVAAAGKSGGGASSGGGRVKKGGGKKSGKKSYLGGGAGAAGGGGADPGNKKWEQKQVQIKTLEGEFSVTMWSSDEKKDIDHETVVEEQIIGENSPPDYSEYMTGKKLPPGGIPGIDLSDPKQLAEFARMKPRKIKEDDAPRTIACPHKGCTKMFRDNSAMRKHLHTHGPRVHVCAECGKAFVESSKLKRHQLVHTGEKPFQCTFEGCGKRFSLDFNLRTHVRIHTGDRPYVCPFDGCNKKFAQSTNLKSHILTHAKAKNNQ
UniProt O15047: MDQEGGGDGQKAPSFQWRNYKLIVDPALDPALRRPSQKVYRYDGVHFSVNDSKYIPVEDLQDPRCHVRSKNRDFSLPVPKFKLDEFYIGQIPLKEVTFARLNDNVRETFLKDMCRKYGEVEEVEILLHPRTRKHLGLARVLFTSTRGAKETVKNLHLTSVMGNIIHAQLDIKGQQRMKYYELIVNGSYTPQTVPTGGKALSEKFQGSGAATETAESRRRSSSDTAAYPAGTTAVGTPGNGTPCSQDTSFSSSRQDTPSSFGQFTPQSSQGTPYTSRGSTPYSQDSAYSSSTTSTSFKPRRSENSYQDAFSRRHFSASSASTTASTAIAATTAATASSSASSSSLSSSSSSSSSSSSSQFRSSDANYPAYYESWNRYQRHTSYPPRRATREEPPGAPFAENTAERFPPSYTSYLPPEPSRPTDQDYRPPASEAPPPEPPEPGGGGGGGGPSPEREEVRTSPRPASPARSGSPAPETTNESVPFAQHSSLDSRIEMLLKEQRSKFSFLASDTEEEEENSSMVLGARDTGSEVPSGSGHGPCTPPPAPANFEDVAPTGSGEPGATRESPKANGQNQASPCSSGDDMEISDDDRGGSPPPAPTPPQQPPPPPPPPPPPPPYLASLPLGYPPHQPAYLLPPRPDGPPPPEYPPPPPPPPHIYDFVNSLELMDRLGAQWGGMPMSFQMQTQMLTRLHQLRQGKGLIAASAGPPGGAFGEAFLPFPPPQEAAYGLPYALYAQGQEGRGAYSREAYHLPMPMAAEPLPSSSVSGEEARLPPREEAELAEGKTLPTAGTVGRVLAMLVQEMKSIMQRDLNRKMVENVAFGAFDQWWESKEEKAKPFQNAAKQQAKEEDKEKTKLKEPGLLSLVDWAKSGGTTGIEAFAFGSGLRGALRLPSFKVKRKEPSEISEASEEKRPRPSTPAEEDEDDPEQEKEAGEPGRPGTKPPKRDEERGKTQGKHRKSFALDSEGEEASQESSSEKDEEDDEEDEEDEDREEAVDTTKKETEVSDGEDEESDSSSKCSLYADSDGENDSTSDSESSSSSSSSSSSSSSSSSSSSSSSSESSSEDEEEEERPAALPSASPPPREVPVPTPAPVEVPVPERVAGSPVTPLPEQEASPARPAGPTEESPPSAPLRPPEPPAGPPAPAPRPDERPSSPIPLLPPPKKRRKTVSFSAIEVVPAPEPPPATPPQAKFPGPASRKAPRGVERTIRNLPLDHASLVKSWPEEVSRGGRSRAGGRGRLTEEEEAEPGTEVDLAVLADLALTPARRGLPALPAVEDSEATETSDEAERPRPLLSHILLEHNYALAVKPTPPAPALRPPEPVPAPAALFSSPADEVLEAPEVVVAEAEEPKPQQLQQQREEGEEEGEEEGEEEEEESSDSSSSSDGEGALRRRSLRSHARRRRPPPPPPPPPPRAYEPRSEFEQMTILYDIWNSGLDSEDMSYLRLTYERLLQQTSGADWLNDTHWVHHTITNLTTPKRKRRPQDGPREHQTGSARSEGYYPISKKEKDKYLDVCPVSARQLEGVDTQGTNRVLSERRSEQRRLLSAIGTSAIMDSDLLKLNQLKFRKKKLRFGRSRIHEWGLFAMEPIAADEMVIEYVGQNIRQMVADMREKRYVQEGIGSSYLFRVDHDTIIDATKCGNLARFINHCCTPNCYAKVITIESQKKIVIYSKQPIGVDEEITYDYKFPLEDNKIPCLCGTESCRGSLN
UniProt Q8BFQ4: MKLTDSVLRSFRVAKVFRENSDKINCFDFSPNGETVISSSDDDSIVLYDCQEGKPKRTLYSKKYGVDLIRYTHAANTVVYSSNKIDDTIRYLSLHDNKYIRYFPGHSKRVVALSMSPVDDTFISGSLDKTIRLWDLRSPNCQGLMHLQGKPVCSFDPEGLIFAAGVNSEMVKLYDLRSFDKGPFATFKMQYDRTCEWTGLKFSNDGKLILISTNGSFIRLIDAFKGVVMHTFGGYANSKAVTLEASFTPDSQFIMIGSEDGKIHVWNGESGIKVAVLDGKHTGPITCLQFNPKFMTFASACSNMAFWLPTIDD

Legend:
[1] = molecular target: Yin Yang 1 (YY1), human (human (endogenous in hESC-VSMCs)) (UniProt P25490); assay: co-IP; endogenous proteins of hESC-VSMCs; protein extracted, precipitated with an anti-YY1 antibody, an anti-SET1A antibody or IgG, then immunoblot; also after lentivirus-mediated overexpression of YY1
[2] = molecular target: Yin Yang 1 (YY1), human (human (endogenous in hESC-VSMCs)) (UniProt P25490); assay: co-IP; whole-cell extracts treated with DNase I; reciprocal co-IP with anti-YY1 and anti-Set1A antibodies
[3] = molecular target: Yin Yang 1 (YY1), mouse (mouse (endogenous in murine aortic media)) (UniProt Q00899); assay: co-IP; endogenous proteins of murine aortic media; protein extracted, precipitated with an anti-YY1 antibody or IgG (negative control), then immunoblot
[4] = molecular target: SET1A, human (human (endogenous in hESC-VSMCs)) (UniProt O15047); assay: co-IP; endogenous proteins of hESC-VSMCs; protein extracted, precipitated with an anti-YY1 antibody, an anti-SET1A antibody or IgG, then immunoblot; also after lentivirus-mediated overexpression of YY1
[5] = molecular target: SET1A, human (human (endogenous in hESC-VSMCs)) (UniProt O15047); assay: co-IP; whole-cell extracts treated with DNase I; reciprocal co-IP with anti-YY1 and anti-Set1A antibodies

What does the source list for “SET1A, human (from UniProt O15047 1-1707) (enzyme)”?
binding [1]: binds; binding [2]: binds

With “Wdr82, mouse (from UniProt Q8BFQ4 1-313)” as the substance, how does the binding [3] read?
The binding was “binds”.

With “Yin Yang 1 (YY1), human (from UniProt P25490 1-414)” as the substance, how does the binding [4] read?
Its binding is “binds”.

What about the binding [5] of the same substance?
The binding was “binds”.
